Measurements: article PMC4601075, “Specific binding of eukaryotic ORC to DNA replication origins depends on highly conserved basic residues” (Scientific Reports, 2015)
These are yes or no findings as the source states them, for the method shown. Some entries that bind do so weakly or less than the wild type. For some of these results: Sequences can lack the tags named with a protein.

T1: ScOrc1 K362A (Orc1 subunit of ORC-1^K362A) (S. cerevisiae) (UniProt P54784)
T1 sequence: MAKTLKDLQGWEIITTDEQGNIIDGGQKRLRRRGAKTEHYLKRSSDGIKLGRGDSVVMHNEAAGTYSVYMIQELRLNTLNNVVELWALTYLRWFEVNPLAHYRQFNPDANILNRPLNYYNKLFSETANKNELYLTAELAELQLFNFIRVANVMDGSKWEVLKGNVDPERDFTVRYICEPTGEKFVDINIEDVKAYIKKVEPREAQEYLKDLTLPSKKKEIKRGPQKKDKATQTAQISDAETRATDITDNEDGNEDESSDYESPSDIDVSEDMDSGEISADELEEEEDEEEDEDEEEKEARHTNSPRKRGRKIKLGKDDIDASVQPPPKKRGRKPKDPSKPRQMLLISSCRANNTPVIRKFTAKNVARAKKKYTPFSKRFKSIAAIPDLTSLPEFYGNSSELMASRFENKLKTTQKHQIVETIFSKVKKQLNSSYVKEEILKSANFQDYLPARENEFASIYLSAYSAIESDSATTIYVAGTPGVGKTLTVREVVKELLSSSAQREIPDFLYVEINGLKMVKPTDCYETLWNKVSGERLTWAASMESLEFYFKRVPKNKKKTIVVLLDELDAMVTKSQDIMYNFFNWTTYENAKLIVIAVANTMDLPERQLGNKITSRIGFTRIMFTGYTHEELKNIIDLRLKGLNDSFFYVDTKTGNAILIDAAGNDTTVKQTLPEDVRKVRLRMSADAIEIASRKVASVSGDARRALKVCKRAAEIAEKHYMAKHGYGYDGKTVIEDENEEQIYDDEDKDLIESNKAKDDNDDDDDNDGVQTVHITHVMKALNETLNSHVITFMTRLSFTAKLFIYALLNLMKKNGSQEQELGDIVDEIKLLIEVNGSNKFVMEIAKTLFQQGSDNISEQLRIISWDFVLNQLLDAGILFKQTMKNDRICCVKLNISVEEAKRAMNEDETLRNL

T2: ScOrc1 R367A (Orc1 subunit of ORC-1^R367A) (S. cerevisiae) (UniProt P54784)
T2 sequence: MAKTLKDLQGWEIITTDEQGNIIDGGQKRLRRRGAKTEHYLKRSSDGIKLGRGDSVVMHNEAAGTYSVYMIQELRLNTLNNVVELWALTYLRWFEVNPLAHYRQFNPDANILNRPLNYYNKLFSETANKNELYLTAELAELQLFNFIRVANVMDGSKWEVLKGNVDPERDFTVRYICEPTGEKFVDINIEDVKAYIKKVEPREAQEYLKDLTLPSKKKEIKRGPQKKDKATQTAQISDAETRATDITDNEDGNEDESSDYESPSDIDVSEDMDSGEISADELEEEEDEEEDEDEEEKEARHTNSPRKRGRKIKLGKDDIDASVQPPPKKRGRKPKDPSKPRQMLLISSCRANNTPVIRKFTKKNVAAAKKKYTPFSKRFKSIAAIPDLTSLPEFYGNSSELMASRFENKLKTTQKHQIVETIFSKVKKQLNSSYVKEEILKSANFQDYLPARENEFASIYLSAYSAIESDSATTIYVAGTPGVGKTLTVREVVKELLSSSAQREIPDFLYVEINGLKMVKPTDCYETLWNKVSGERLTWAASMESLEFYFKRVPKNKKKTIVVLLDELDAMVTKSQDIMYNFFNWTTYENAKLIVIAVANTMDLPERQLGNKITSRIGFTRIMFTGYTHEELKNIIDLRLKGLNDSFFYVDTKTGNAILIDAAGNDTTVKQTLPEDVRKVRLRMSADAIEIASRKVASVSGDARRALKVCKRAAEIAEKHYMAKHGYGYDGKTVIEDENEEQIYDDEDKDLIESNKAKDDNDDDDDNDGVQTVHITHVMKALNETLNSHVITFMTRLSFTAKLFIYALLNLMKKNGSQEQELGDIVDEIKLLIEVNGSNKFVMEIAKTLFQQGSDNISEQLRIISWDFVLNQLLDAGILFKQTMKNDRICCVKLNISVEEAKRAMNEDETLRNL

T3: ScOrc1-TEV-His (S. cerevisiae) (UniProt P54784)
T3 sequence: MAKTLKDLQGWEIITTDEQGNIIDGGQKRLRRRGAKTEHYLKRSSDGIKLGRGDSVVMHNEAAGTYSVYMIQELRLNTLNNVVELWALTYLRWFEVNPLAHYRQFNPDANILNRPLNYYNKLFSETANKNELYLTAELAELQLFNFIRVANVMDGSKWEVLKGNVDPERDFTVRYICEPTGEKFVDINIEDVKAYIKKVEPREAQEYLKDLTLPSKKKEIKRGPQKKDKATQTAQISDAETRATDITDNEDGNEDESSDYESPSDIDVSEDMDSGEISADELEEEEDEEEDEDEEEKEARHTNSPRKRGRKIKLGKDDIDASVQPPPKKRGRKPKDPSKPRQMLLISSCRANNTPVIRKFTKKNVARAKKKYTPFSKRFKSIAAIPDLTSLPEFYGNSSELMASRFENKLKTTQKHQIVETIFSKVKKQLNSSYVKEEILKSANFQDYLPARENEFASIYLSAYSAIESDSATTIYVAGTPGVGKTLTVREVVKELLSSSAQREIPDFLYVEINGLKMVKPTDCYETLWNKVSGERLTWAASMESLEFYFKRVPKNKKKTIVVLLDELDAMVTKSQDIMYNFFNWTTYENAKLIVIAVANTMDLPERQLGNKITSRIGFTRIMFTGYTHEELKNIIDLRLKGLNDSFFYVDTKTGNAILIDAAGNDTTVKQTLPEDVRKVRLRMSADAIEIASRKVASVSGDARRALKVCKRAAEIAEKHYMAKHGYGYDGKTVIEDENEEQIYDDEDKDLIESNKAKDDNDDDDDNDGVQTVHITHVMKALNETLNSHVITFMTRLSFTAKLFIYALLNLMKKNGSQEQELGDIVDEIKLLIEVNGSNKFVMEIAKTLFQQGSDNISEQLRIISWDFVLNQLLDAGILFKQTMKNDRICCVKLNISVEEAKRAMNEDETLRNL


Legend:
Assay in all cases: co-purification (affinity column, then gel filtration); Orc1-TEV-His co-overexpressed with Orc2/3/4/5/6 in 293T cells; affinity-purified, fractionated on Superdex 200; fractions on 9% SDS-PAGE, Coomassie staining
[1] = biological target: T1, ScOrc1 K362A (Orc1 subunit of ORC-1^K362A) (S. cerevisiae)
[2] = biological target: T2, ScOrc1 R367A (Orc1 subunit of ORC-1^R367A) (S. cerevisiae)
[3] = biological target: T3, ScOrc1-TEV-His (S. cerevisiae)

Row | Binder | binding [1] | binding [2] | binding [3]
1 | ScOrc5 (protein, UniProt P50874 1-479) MNVTTPEVAFREYQTNCLASYISADPDITPSNLILQGYSGTGKTYTLKKYFNANPNLHAVWLEPVELVSWKPLLQAIARTVQYKLKTLYPNIPTTDYDPLQVEEPFLLVKTLHNIFVQYESLQEKTCLFLILDGFDSLQDLDAALFNKYIKLNELLPKDSKINIKFIYTMLETSFLQRYSTHCIPTVMFPRYNVDEVSTILVMSRCGELMEDSCLRKRIIEEQITDCTDDQFQNVAANFIHLIVQAFHSYTGNDIFALNDLIDFKWPKYVSRITKENIFEPLALYKSAIKLFLSTDDNLSENGQGESAITTNRDDLENSQTYDLSIISKYLLIASYICSYLEPRYDASIFSRKTRIIQGRAAYGRRKKKEVNPRYLQPSLFAIERLLAIFQAIFPIQGKAESGSLSALREESLMKANIEVFQNLSELHTLKLIATTMNKNIDYLSPKVRWKVNVPWEIIKEISESVHFNISDYFSDIHE | binds | binds | binds
2 | ScOrc3 (protein, UniProt P54790 1-616) MSDLNQSKKMNVSEFADAQRSHYTVYPSLPQSNKNDKHIPFVKLLSGKESEVNVEKRWELYHQLHSHFHDQVDHIIDNIEADLKAEISDLLYSETTQKRRCFNTIFLLGSDSTTKIELKDESSRYNVLIELTPKESPNVRMMLRRSMYKLYSAADAEEHPTIKYEDINDEDGDFTEQNNDVSYDLSLVENFKRLFGKDLAMVFNFKDVDSINFNTLDNFIILLKSAFKYDHVKISLIFNINTNLSNIEKNLRQSTIRLLKRNYHKLDVSSNKGFKYGNQIFQSFLDTVDGKLNLSDRFVEFILSKMANNTNHNLQLLTKMLDYSLMSYFFQNAFSVFIDPVNVDFLNDDYLKILSRCPTFMFFVEGLIKQHAPADEILSLLTNKNRGLEEFFVEFLVRENPINGHAKFVARFLEEELNITNFNLIELYHNLLIGKLDSYLDRWSACKEYKDRLHFEPIDTIFQELFTLDNRSGLLTQSIFPSYKSNIEDNLLSWEQVLPSLDKENYDTLSGDLDKIMAPVLGQLFKLYREANMTINIYDFYIAFRETLPKEEILNFIRKDPSNTKLLELAETPDAFDKVALILFMQAIFAFENMGLIKFQSTKSYDLVEKCVWRGI | binds | binds | binds
3 | ScOrc2 (protein, UniProt P32833 1-620) MLNGEDFVEHNDILSSPAKSRNVTPKRVDPHGERQLRRIHSSKKNLLERISLVGNERKNTSPDPALKPKTPSKAPRKRGRPRKIQEELTDRIKKDEKDTISSKKKRKLDKDTSGNVNEESKTSNNKQVMEKTGIKEKREREKIQVATTTYEDNVTPQTDDNFVSNSPEPPEPATPSKKSLTTNHDFTSPLKQIIMNNLKEYKDSTSPGKLTLSRNFTPTPVPKNKKLYQTSETKSASSFLDTFEGYFDQRKIVRTNAKSRHTMSMAPDVTREEFSLVSNFFNENFQKRPRQKLFEIQKKMFPQYWFELTQGFSLLFYGVGSKRNFLEEFAIDYLSPKIAYSQLAYENELQQNKPVNSIPCLILNGYNPSCNYRDVFKEITDLLVPAELTRSETKYWGNHVILQIQKMIDFYKNQPLDIKLILVVHNLDGPSIRKNTFQTMLSFLSVIRQIAIVASTDHIYAPLLWDNMKAQNYNFVFHDISNFEPSTVESTFQDVMKMGKSDTSSGAEGAKYVLQSLTVNSKKMYKLLIETQMQNMGNLSANTGPKRGTQRTGVELKLFNHLCAADFIASNEIALRSMLREFIEHKMANITKNNSGMEIIWVPYTYAELEKLLKTVLNTL | binds | binds | 

Now from value to binder:

Row | binding [1] | binding [2] | binding [3] | Binder
4 | binds | binds |  | ScOrc6 (protein, UniProt P38826 1-435) MSMQQVQHCVAEVLRLDPQEKPDWSSGYLKKLTNATSILYNTSLNKVMLKQDEEVARCHICAYIASQKMNEKHMPDLCYYIDSIPLEPKKAKHLMNLFRQSLSNSSPMKQFAWTPSPKKNKRSPVKNGGRFTSSDPKELRNQLFGTPTKVRKSQNNDSFVIPELPPMQTNESPSITRRKLAFEEDEDEDEEEPGNDGLSLKSHSNKSITGTRNVDSDEYENHESDPTSEEEPLGVQESRSGRTKQNKAVGKPQSELKTAKALRKRGRIPNSLLVKKYCKMTTEEIIRLCNDFELPREVAYKIVDEYNINASRLVCPWQLVCGLVLNCTFIVFNERRRKDPRIDHFIVSKMCSLMLTSKVDDVIECVKLVKELIIGEKWFRDLQIRYDDFDGIRYDEIIFRKLGSMLQTTNILVTDDQYNIWKKRIEMDLALTEPL
5 | binds | binds | binds | ScOrc4 (protein, UniProt P54791 1-529) MTISEARLSPQVNLLPIKRHSNEEVEETAAILKKRTIDNEKCKDSDPGFGSLQRRLLQQLYGTLPTDEKIIFTYLQDCQQEIDRIIKQSIIQKESHSVILVGPRQSYKTYLLDYELSLLQQSYKEQFITIRLNGFIHSEQTAINGIATQLEQQLQKIHGSEEKIDDTSLETISSGSLTEVFEKILLLLDSTTKTRNEDSGEVDRESITKITVVFIFDEIDTFAGPVRQTLLYNLFDMVEHSRVPVCIFGCTTKLNILEYLEKRVKSRFSQRVIYMPQIQNLDDMVDAVRNLLTVRSEISPWVSQWNETLEKELSDPRSNLNRHIRMNFETFRSLPTLKNSIIPLVATSKNFGSLCTAIKSCSFLDIYNKNQLSNNLTGRLQSLSDLELAILISAARVALRAKDGSFNFNLAYAEYEKMIKAINSRIPTVAPTTNVGTGQSTFSIDNTIKLWLKKDVKNVWENLVQLDFFTEKSAVGLRDNATAAFYASNYQFQGTMIPFDLRSYQMQIILQELRRIIPKSNMYYSWTQL
